Values of other authors, collected in patent US7649113B2, “Mono, di and tri cyclic compounds useful for lowering IgE concentrations” (The Research Foundation of State University of New York, priority 2003, dated 2010).
At least one compound was matched to its structure with a doubt left.

Experiments:
mice = conditions: cited from earlier work
[1] = system: inducible nitric oxide synthase (iNOS); conditions: murine macrophages; cited from earlier work

## CN(C)[C@@H]1C(O)=C(C(N)=O)C(=O)[C@@]2(O)C(O)=C3C(=O)c4c(O)cccc4[C@@](C)(O)[C@H]3C[C@@H]12 [tetracycline]
mice
  ability to mount delayed-type hypersensitivity responses: inhibit
[1]
  inducible nitric oxide synthase (iNOS) expression: inhibits
